Experimental data reported in the supplement of paper PMC8728848.
This is one part of the list.

Assays:
Experiment in all cases: glycan array binding signal (z-score within array); higher = stronger binding
Conditions in all cases: glycan notation: IUPAC condensed, linker removed
[1] = biological target: Neu5Ac(a2-3)Gal(b1-3)GalNAc(b1-4)[Neu5Ac(a2-3)]Gal(b1-4)Glc
How it was run: (§1)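 From the Consortium for Functional Glycomics database, 3228 arrays were curated, keeping only those whose protein sequence was available. Binding is given as a within-array Z-score averaged across arrays sharing a protein sequence and across linkers. Negative Z-scores can be read as non-binding.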

[2] = biological target: Neu5Ac(a2-3)Gal(b1-3)GalNAc(b1-4)[Neu5Ac(a2-8)Neu5Ac(a2-3)]Gal(b1-4)Glc
How it was run: as §1

[3] = biological target: Neu5Ac(a2-3)Gal(b1-3)GalNAc6S
How it was run: as §1

[4] = biological target: Neu5Ac(a2-3)Gal(b1-3)GlcNAc
How it was run: as §1

[5] = biological target: Neu5Ac(a2-3)Gal(b1-3)GlcNAc(b1-2)Man(a1-3)[GlcNAc(b1-4)][Neu5Ac(a2-3)Gal(b1-3)GlcNAc(b1-2)Man(a1-6)]Man(b1-4)GlcNAc(b1-4)GlcNAc
How it was run: as §1

[6] = biological target: Neu5Ac(a2-3)Gal(b1-3)GlcNAc(b1-3)Gal(b1-3)GlcNAc
How it was run: as §1

[7] = biological target: Neu5Ac(a2-3)Gal(b1-3)GlcNAc(b1-3)Gal(b1-4)GlcNAc
How it was run: as §1

[8] = biological target: Neu5Ac(a2-3)Gal(b1-3)GlcNAc(b1-3)GalNAc
How it was run: as §1

[9] = biological target: Neu5Ac(a2-3)Gal(b1-3)GlcNAc(b1-6)GalNAc
How it was run: as §1

[10] = biological target: Neu5Ac(a2-3)Gal(b1-3)GlcNAc6S
How it was run: as §1

[11] = biological target: Neu5Ac(a2-3)Gal(b1-3)[Fuc(a1-4)]GlcNAc
How it was run: as §1

[12] = biological target: Neu5Ac(a2-3)Gal(b1-3)[Fuc(a1-4)]GlcNAc(b1-3)Gal(b1-3)[Fuc(a1-4)]GlcNAc
How it was run: as §1

[13] = biological target: Neu5Ac(a2-3)Gal(b1-3)[Fuc(a1-4)]GlcNAc(b1-3)Gal(b1-4)[Fuc(a1-3)]GlcNAc
How it was run: as §1

[14] = biological target: Neu5Ac(a2-3)Gal(b1-3)[Neu5Ac(a2-3)Gal(b1-4)]GlcNAc
How it was run: as §1

[15] = biological target: Neu5Ac(a2-3)Gal(b1-3)[Neu5Ac(a2-6)]GalNAc
How it was run: as §1

[16] = biological target: Neu5Ac(a2-3)Gal(b1-3)[Neu5Ac(a2-6)]GlcNAc(b1-3)[Fuc(a1-3)[Gal(b1-4)]GlcNAc(b1-6)]Gal(b1-4)Glc
How it was run: as §1

Neu5Ac(a2-3)Gal(b1-4)Glc = biological target: Neu5Ac(a2-3)Gal(b1-4)Glc
How it was run: as §1

[17] = biological target: Neu5Ac(a2-3)Gal(b1-4)GlcNAc
How it was run: as §1

[18] = biological target: Neu5Ac(a2-3)Gal(b1-4)GlcNAc(b1-2)Man
How it was run: as §1

[19] = biological target: Neu5Ac(a2-3)Gal(b1-4)GlcNAc(b1-2)Man(a1-3)[GlcNAc(b1-2)Man(b1-4)GlcNAc(b1-2)Man(a1-6)]Man(b1-4)GlcNAc(b1-4)GlcNAc
How it was run: as §1

[20] = biological target: Neu5Ac(a2-3)Gal(b1-4)GlcNAc(b1-2)Man(a1-3)[Neu5Ac(a2-3)Gal(b1-4)GlcNAc(b1-2)Man(a1-6)]Man(b1-4)GlcNAc(b1-4)[Fuc(a1-6)]GlcNAc
How it was run: as §1

[21] = biological target: Neu5Ac(a2-3)Gal(b1-4)GlcNAc(b1-2)Man(a1-3)[Neu5Ac(a2-6)Gal(b1-4)GlcNAc(b1-2)Man(a1-6)]Man(b1-4)GlcNAc(b1-4)GlcNAc
How it was run: as §1

[22] = biological target: Neu5Ac(a2-3)Gal(b1-4)GlcNAc(b1-2)[Neu5Ac(a2-3)Gal(b1-4)GlcNAc(b1-6)]Man(a1-6)[Neu5Ac(a2-3)Gal(b1-4)GlcNAc(b1-2)Man(a1-3)]Man(b1-4)GlcNAc(b1-4)GlcNAc
How it was run: as §1

[23] = biological target: Neu5Ac(a2-3)Gal(b1-4)GlcNAc(b1-3)Gal
How it was run: as §1

[24] = biological target: Neu5Ac(a2-3)Gal(b1-4)GlcNAc(b1-3)Gal(b1-3)GlcNAc
How it was run: as §1

[25] = biological target: Neu5Ac(a2-3)Gal(b1-4)GlcNAc(b1-3)Gal(b1-4)GlcNAc
How it was run: as §1

[26] = biological target: Neu5Ac(a2-3)Gal(b1-4)GlcNAc(b1-3)Gal(b1-4)GlcNAc(b1-3)Gal(b1-4)GlcNAc
How it was run: as §1

[27] = biological target: Neu5Ac(a2-3)Gal(b1-4)GlcNAc(b1-3)Gal(b1-4)[Fuc(a1-3)]GlcNAc
How it was run: as §1

[28] = biological target: Neu5Ac(a2-3)Gal(b1-4)GlcNAc(b1-3)GalNAc
How it was run: as §1

[29] = biological target: Neu5Ac(a2-3)Gal(b1-4)GlcNAc(b1-3)[Neu5Ac(a2-3)Gal(b1-4)GlcNAc(b1-6)]GalNAc
How it was run: as §1

[30] = biological target: Neu5Ac(a2-3)Gal(b1-4)GlcNAc(b1-6)GalNAc
How it was run: as §1

[31] = biological target: Neu5Ac(a2-3)Gal(b1-4)GlcNAc(b1-6)[Gal(b1-3)]GalNAc
How it was run: as §1

[32] = biological target: Neu5Ac(a2-3)Gal(b1-4)GlcNAc(b1-6)[Neu5Ac(a2-3)Gal(b1-3)]GalNAc
How it was run: as §1

[33] = biological target: Neu5Ac(a2-3)Gal(b1-4)GlcNAc6S
How it was run: as §1

[34] = biological target: Neu5Ac(a2-3)Gal(b1-4)[Fuc(a1-3)]GlcNAc
How it was run: as §1

[35] = biological target: Neu5Ac(a2-3)Gal(b1-4)[Fuc(a1-3)]GlcNAc(b1-3)Gal
How it was run: as §1

[36] = biological target: Neu5Ac(a2-3)Gal(b1-4)[Fuc(a1-3)]GlcNAc(b1-3)Gal(b1-4)GlcNAc
How it was run: as §1

[37] = biological target: Neu5Ac(a2-3)Gal(b1-4)[Fuc(a1-3)]GlcNAc(b1-3)Gal(b1-4)[Fuc(a1-3)]GlcNAc(b1-3)Gal(b1-4)[Fuc(a1-3)]GlcNAc
How it was run: as §1

[38] = biological target: Neu5Ac(a2-3)Gal(b1-4)[Fuc(a1-3)]GlcNAc(b1-3)GalNAc
How it was run: as §1

[39] = biological target: Neu5Ac(a2-3)Gal(b1-4)[Fuc(a1-3)]GlcNAc(b1-6)[Gal(b1-3)]GalNAc
How it was run: as §1

[40] = biological target: Neu5Ac(a2-3)Gal(b1-4)[Fuc(a1-3)]GlcNAc6S
How it was run: as §1

[41] = biological target: Neu5Ac(a2-3)Gal6S(b1-4)GlcNAc
How it was run: as §1

[42] = biological target: Neu5Ac(a2-3)Gal6S(b1-4)[Fuc(a1-3)]GlcNAc
How it was run: as §1

Neu5Ac(a2-3)GalNAc = biological target: Neu5Ac(a2-3)GalNAc
How it was run: as §1

[43] = biological target: Neu5Ac(a2-3)GalNAc(b1-4)GlcNAc
How it was run: as §1

B1: Latrophilin-3 (Homo sapiens), Q9HAR2 (protein)
chain: MWPSQLLIFMMLLAPIIHAFSRAPIPMAVVRRELSCESYPIELRCPGTDVIMIESANYGRTDDKICDSDPAQMENIRCYLPDAYKIMSQRCNNRTQCAVVAGPDVFPDPCPGTYKYLEVQYECVPYKVEQKVFLCPGLLKGVYQSEHLFESDHQSGAWCKDPLQASDKIYYMPWTPYRTDTLTEYSSKDDFIAGRPTTTYKLPHRVDGTGFVVYDGALFFNKERTRNIVKFDLRTRIKSGEAIIANANYHDTSPYRWGGKSDIDLAVDENGLWVIYATEQNNGKIVISQLNPYTLRIEGTWDTAYDKRSASNAFMICGILYVVKSVYEDDDNEATGNKIDYIYNTDQSKDSLVDVPFPNSYQYIAAVDYNPRDNLLYVWNNYHVVKYSLDFGPLDSRSGQAHHGQVSYISPPIHLDSELERPSVKDISTTGPLGMGSTTTSTTLRTTTLSPGRSTTPSVSGRRNRSTSTPSPAVEVLDDMTTHLPSASSQIPALEESCEAVEAREIMWFKTRQGQIAKQPCPAGTIGVSTYLCLAPDGIWDPQGPDLSNCSSPWVNHITQKLKSGETAANIARELAEQTRNHLNAGDITYSVRAMDQLVGLLDVQLRNLTPGGKDSAARSLNKAMVETVNNLLQPQALNAWRDLTTSDQLRAATMLLHTVEESAFVLADNLLKTDIVRENTDNIKLEVARLSTEGNLEDLKFPENMGHGSTIQLSANTLKQNGRNGEIRVAFVLYNNLGPYLSTENASMKLGTEALSTNHSVIVNSPVITAAINKEFSNKVYLADPVVFTVKHIKQSEENFNPNCSFWSYSKRTMTGYWSTQGCRLLTTNKTHTTCSCNHLTNFAVLMAHVEVKHSDAVHDLLLDVITWVGILLSLVCLLICIFTFCFFRGLQSDRNTIHKNLCISLFVAELLFLIGINRTDQPIACAVFAALLHFFFLAAFTWMFLEGVQLYIMLVEVFESEHSRRKYFYLVGYGMPALIVAVSAAVDYRSYGTDKVCWLRLDTYFIWSFIGPATLIIMLNVIFLGIALYKMFHHTAILKPESGCLDNIKSWVIGAIALLCLLGLTWAFGLMYINESTVIMAYLFTIFNSLQGMFIFIFHCVLQKKVRKEYGKCLRTHCCSGKSTESSIGSGKTSGSRTPGRYSTGSQSRIRRMWNDTVRKQSESSFITGDINSSASLNREGLLNNARDTSVMDTLPLNGNHGNSYSIASGEYLSNCVQIIDRGYNHNETALEKKILKELTSNYIPSYLNNHERSSEQNRNLMNKLVNNLGSGREDDAIVLDDATSFNHEESLGLELIHEESDAPLLPPRVYSTENHQPHHYTRRRIPQDHSESFFPLLTNEHTEDLQSPHRDSLYTSMPTLAGVAATESVTTSTQTEPPPAKCGDAEDVYYKSMPNLGSRNHVHQLHTYYQLGRGSSDGFIVPPNKDGTPPEGSSKGPAHLVTSL
glycan array binding signal (z-score) [1]: -0.585 | glycan array binding signal (z-score) [2]: -0.226 | glycan array binding signal (z-score) [3]: 0.148 | glycan array binding signal (z-score) [4]: 0.549 | glycan array binding signal (z-score) [5]: -0.668 | glycan array binding signal (z-score) [6]: -1.16 | glycan array binding signal (z-score) [7]: 0.349 | glycan array binding signal (z-score) [8]: -0.376 | glycan array binding signal (z-score) [9]: -0.588 | glycan array binding signal (z-score) [10]: -0.509 | glycan array binding signal (z-score) [11]: -0.042 | glycan array binding signal (z-score) [12]: 6.27 | glycan array binding signal (z-score) [13]: -0.352 | glycan array binding signal (z-score) [14]: -0.731 | glycan array binding signal (z-score) [15]: 0.232 | glycan array binding signal (z-score) [16]: -0.442 | glycan array binding signal (z-score) (Neu5Ac(a2-3)Gal(b1-4)Glc): -0.511 | glycan array binding signal (z-score) [17]: 0.302 | glycan array binding signal (z-score) [18]: -0.747 | glycan array binding signal (z-score) [19]: 0.035 | glycan array binding signal (z-score) [20]: 0.562 | glycan array binding signal (z-score) [21]: -0.287 | glycan array binding signal (z-score) [22]: 0.262 | glycan array binding signal (z-score) [23]: -1.21 | glycan array binding signal (z-score) [24]: 0.415 | glycan array binding signal (z-score) [25]: -0.549 | glycan array binding signal (z-score) [26]: -1.1 | glycan array binding signal (z-score) [27]: 0.751 | glycan array binding signal (z-score) [28]: 0.708 | glycan array binding signal (z-score) [29]: 1.37 | glycan array binding signal (z-score) [30]: -0.85 | glycan array binding signal (z-score) [31]: -0.293 | glycan array binding signal (z-score) [32]: -0.146 | glycan array binding signal (z-score) [33]: -0.064 | glycan array binding signal (z-score) [34]: -0.152 | glycan array binding signal (z-score) [35]: 1.17 | glycan array binding signal (z-score) [36]: 0.683 | glycan array binding signal (z-score) [37]: 0.41 | glycan array binding signal (z-score) [38]: 3.18 | glycan array binding signal (z-score) [39]: 2.03 | glycan array binding signal (z-score) [40]: 0.396 | glycan array binding signal (z-score) [41]: 0.048 | glycan array binding signal (z-score) [42]: -0.975 | glycan array binding signal (z-score) (Neu5Ac(a2-3)GalNAc): -1.32 | glycan array binding signal (z-score) [43]: -0.972
